Source: the supplement of paper PMC11006884
This is a selection; strong and weak results do not stand in their true shares.

Protein sequences, listed by entry. Tags and fused reporters are not part of them. Lines headed by an entry give the natural chain unless they say otherwise; changes in a name come on top.
UniProt Q9NV96: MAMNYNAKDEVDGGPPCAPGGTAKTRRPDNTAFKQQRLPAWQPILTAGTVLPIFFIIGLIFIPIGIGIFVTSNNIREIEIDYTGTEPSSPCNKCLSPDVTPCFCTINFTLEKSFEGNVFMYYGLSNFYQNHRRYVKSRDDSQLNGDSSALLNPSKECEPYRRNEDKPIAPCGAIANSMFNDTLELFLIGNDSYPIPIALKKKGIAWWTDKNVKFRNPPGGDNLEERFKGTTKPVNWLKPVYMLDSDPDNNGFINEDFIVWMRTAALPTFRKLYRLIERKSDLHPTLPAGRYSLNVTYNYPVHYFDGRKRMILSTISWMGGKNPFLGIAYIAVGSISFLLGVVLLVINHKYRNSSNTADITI
UniProt Q9UEG4: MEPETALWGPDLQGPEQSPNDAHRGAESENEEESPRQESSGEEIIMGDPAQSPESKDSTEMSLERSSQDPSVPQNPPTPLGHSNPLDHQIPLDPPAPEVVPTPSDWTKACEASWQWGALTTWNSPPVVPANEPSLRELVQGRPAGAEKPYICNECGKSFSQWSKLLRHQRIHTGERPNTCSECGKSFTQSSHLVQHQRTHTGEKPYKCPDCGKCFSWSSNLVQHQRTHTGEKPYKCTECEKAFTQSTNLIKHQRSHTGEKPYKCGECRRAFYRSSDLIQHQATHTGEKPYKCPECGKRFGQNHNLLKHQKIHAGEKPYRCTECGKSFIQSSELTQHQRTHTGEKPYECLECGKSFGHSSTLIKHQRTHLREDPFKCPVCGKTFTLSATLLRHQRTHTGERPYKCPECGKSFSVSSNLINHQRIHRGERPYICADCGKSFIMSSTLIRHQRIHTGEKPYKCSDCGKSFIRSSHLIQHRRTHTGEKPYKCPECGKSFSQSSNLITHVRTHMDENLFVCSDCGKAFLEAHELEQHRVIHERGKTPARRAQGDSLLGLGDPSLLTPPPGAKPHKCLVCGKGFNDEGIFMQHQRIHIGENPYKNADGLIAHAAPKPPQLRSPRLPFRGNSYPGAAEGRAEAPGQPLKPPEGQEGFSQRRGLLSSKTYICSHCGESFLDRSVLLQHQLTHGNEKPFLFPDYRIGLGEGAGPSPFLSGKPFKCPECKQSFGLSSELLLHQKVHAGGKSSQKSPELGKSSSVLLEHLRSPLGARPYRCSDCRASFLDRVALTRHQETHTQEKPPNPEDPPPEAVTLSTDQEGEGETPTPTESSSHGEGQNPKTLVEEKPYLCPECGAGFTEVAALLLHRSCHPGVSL
UniProt Q9NVI7: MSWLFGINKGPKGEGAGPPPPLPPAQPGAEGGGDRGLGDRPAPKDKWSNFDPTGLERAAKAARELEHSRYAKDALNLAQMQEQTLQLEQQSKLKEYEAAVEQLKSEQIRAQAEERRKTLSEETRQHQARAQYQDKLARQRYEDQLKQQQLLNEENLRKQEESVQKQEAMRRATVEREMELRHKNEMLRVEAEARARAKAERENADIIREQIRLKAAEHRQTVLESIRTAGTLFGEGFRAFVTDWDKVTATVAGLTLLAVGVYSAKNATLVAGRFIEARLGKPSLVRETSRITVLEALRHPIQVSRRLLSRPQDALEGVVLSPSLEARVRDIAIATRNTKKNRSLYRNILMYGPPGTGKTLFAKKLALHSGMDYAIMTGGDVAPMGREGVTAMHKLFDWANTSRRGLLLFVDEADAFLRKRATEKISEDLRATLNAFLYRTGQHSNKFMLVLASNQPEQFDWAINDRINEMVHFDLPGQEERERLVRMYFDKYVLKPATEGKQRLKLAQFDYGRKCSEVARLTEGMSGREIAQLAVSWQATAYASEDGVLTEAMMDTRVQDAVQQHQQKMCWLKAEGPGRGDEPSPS
UniProt Q9UBF6, whole entry: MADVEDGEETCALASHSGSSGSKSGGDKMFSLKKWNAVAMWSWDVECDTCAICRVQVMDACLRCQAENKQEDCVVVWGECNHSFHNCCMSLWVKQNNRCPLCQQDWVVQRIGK
UniProt Q9NXH9: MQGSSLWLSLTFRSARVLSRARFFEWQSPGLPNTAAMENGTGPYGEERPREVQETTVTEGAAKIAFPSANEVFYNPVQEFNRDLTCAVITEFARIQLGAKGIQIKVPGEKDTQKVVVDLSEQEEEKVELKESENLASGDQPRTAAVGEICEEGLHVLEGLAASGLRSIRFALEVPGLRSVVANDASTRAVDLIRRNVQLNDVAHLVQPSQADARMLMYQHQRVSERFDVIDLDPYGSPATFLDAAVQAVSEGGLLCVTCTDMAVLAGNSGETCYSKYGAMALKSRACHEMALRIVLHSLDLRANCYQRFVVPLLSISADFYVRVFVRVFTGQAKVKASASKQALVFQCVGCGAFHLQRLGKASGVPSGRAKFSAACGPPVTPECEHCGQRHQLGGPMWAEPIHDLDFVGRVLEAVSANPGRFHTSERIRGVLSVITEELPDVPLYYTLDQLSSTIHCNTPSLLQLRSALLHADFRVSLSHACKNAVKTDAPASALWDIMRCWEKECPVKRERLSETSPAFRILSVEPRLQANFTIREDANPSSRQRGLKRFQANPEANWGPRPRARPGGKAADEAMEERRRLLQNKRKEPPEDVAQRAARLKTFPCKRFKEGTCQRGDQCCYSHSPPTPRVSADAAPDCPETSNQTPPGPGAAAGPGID
UniProt Q9P275: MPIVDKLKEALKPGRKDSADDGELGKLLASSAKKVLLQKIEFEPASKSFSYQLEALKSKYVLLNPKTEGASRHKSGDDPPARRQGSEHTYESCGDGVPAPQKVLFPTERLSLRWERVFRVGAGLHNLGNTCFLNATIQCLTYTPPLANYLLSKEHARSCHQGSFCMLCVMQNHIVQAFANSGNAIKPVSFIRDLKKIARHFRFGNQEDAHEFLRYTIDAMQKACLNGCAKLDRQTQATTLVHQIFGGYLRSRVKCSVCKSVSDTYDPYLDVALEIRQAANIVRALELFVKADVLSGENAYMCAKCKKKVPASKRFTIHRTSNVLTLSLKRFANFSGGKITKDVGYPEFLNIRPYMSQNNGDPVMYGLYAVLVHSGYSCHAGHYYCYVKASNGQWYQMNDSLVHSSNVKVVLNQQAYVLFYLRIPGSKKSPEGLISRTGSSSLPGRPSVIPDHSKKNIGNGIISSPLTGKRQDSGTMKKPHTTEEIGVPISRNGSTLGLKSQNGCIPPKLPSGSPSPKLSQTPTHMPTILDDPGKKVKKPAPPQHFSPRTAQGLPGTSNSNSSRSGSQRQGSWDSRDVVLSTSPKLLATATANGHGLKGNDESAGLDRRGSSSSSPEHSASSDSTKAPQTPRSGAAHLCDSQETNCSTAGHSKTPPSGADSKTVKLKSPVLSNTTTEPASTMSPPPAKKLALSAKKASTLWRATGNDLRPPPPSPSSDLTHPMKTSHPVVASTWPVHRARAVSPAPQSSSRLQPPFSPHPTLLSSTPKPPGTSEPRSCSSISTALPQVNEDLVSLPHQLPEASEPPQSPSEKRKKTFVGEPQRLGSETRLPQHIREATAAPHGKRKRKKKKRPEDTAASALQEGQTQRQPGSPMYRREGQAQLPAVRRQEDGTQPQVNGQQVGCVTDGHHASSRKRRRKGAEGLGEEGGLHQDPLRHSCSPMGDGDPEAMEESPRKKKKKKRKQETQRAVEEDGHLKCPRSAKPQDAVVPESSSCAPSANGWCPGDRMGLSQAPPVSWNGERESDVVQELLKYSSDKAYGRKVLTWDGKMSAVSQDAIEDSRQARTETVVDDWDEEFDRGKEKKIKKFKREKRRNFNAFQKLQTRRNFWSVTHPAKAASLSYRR
UniProt Q9NYL9: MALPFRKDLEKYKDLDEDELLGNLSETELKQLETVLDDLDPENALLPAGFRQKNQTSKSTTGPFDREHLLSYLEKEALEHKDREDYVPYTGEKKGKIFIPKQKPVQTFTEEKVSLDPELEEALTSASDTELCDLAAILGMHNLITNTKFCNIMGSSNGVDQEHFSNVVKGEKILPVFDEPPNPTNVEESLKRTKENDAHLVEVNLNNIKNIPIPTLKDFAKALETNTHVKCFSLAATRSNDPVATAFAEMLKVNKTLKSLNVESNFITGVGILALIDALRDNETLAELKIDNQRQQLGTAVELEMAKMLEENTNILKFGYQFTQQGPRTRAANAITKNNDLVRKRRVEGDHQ
UniProt Q9NX63: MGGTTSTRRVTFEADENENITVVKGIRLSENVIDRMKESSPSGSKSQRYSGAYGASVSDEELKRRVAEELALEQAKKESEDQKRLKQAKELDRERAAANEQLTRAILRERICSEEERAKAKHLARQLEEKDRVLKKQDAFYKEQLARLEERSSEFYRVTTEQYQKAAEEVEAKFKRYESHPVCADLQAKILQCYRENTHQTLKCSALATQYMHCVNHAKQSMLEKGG
UniProt Q9P2T1: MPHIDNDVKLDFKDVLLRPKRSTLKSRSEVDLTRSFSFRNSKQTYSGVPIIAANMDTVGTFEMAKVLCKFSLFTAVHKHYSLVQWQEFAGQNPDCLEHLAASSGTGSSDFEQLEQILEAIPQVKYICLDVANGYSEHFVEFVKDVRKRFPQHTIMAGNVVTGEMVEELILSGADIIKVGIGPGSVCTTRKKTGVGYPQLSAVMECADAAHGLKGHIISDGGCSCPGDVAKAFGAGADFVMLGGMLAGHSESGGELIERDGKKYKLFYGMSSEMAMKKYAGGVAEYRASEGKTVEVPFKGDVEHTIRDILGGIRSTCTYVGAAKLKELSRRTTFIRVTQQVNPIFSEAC
UniProt Q9NX40: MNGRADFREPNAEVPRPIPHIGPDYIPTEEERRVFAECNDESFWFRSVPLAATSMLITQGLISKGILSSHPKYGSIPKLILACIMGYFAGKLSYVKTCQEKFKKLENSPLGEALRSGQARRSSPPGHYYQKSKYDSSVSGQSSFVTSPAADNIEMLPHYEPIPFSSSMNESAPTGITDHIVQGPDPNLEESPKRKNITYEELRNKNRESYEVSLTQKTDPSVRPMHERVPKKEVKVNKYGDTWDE
UniProt Q9NVS9: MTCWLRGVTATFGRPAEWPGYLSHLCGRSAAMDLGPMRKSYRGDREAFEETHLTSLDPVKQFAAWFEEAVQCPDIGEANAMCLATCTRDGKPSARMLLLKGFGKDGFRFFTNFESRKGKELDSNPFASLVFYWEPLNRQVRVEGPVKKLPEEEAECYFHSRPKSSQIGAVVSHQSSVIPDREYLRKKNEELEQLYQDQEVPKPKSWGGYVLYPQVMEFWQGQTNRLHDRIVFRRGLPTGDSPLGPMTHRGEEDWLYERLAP
UniProt Q9NV31: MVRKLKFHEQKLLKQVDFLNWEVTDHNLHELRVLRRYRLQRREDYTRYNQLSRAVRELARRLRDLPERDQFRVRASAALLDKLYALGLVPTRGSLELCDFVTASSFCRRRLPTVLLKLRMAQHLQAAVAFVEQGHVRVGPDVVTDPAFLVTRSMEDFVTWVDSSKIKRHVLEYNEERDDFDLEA
UniProt Q9NZJ9: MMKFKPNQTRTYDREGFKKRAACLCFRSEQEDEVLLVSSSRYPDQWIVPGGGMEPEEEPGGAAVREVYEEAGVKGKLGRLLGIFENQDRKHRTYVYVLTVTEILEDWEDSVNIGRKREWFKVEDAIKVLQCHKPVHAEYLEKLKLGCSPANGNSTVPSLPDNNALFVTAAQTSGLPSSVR
UniProt Q9P2N5: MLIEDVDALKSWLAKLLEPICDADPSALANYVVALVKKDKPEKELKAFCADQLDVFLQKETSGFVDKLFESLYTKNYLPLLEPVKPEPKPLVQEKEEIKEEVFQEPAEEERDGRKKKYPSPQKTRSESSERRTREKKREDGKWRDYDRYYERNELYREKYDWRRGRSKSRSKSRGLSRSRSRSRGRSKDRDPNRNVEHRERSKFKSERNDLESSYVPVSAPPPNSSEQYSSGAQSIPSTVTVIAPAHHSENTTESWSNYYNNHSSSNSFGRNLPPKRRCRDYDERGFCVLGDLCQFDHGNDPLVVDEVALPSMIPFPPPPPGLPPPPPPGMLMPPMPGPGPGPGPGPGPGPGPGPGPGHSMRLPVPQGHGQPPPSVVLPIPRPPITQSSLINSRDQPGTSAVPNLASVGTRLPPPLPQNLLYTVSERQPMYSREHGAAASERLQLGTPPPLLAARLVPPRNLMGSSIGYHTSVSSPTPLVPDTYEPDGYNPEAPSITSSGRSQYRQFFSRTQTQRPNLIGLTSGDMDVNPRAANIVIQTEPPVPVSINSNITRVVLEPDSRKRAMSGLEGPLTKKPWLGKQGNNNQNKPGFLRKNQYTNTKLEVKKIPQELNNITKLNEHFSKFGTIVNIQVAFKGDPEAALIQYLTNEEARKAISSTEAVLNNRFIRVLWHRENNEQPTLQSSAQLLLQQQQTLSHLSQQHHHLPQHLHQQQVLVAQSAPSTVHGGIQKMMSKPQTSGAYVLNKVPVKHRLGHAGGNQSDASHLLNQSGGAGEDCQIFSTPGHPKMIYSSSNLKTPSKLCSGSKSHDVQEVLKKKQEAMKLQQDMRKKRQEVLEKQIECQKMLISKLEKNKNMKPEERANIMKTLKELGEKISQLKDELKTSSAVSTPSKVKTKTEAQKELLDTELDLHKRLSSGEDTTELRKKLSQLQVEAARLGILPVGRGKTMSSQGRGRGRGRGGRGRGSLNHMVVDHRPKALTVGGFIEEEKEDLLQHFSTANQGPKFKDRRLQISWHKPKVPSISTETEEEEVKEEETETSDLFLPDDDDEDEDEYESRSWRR

Each target was assayed with COC(=O)C#Cc1ccccc1 [methyl 3-phenylpropiolate] (assay: log2 ratio of iodoacetamide-alkyne labeling of the cysteine site, DMSO over compound (competition); higher = stronger covalent engagement of the cysteine by the compound, active = 1 or more). Conditions: 500 µM; treatment time 1 h; system: HEK293T cell lysate.
In short: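 For each cysteine, the log2 competition ratio is mean control-channel reporter intensity over mean compound-channel reporter intensity. HEK293T lysate (2 mg/mL) was exposed to vehicle or electrophile (500 µM, 1 h, ambient temperature), labelled with iodoacetamide alkyne (1 h), clicked to sCIP-TMT reagents, digested overnight with trypsin at 37 °C, streptavidin-enriched and analysed by Orbitrap Eclipse LC-MS/MS with FAIMS and FragPipe. Cysteines quantified in only one of three replicates, each with duplicate channels, were excluded.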

log2 ratio of iodoacetamide-alkyne labeling, inactive:
TMEM30A C17 (UniProt Q9NV96) 0.217, ZNF629 C110 (UniProt Q9UEG4) 0.632, UniProt Q9NYV4_C1009 0.768, ATAD3A C563 (UniProt Q9NVI7) 0.273, RNF7 C11 (UniProt Q9UBF6) 0.556, TRMT1 C86 (UniProt Q9NXH9) 0.357, USP36 C977 (UniProt Q9P275) 0.897, TMOD3 C231 (UniProt Q9NYL9) 0.0905, CHCHD3 C112 (UniProt Q9NX63) 0.0891, COPG2 C420 (UniProt Q9UBF2) -0.0241, GMPR2 C348 (UniProt Q9P2T1) 0.0583, OCIAD1 C38 (UniProt Q9NX40) 0.165, MPP6 C432 (UniProt Q9NZW5) 0.479, PNPO C156 (UniProt Q9NVS9) 0.121, IMP3 C107 (UniProt Q9NV31) 0.679, RRBP1 C1216 (UniProt Q9P2E9) 0.633, KBTBD4 C455 (UniProt Q9NVX7) 0.248, NUDT4 C131 (UniProt Q9NZJ9) 0.306, TMEM161A C33 (UniProt Q9NX61) 0.304, RBM27 C776 (UniProt Q9P2N5) 0.232, PNPO C72 (UniProt Q9NVS9) -0.0958
